Experimental data published in publication PMC3314626, “Crystal Structures of the Tetratricopeptide Repeat Domains of Kinesin Light Chains: Insight into Cargo Recognition Mechanisms” (PLoS ONE, 2012).
Results are given in words; binding and its absence hold for the method and conditions named.

Sequences of proteins named here, by UniProt entry; tags and fusion partners are left off. Residues count along the entry.
UniProt Q9H0B6, residues 217-480: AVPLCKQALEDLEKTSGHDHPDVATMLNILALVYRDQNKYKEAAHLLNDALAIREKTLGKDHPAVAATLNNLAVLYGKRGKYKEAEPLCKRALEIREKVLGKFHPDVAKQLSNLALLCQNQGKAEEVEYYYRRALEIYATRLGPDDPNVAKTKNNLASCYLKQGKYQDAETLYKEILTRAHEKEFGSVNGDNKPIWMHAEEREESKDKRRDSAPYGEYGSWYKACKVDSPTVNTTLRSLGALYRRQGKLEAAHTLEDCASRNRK

Target: KLC2 TPR domain (kinesin light chain 2 tetratricopeptide repeat domain) (human) (UniProt Q9H0B6)
Assay: condition: peptide solution 1-3 mM injected into 60-130 uM KLC2-TPR; ITC; peptide (1-3 mM) in the syringe injected into 60-130 uM KLC1-TPR or KLC2-TPR (or mutant) in the cell; 25 C; 20 mM Bis-Tris pH 6.5, 500 mM NaCl, 0.5 mM TCEP; one-site binding model; both purified

EYTCPTEDIYLE (N-terminal acetyl (Ac-); free C-terminal carboxylate (-COOH)) [JIP1 peptide (C-terminal residues of JNK-interacting protein 1)]
binding: no binding
